Measurements: the supplement of paper PMC12889115
The list shows a part of the results. Values are raw readings; no control value is given beside them.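 Primary screen: polymyxin B was added at a level permeabilizing Salmonella outer membranes while sparing inner membranes. DMSO wells, both with and without polymyxin B, established maximum growth. Plate-to-plate variation meant each plate was ranked on its own, and the lowest-OD600 compounds were selected as hits.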

System: Salmonella enterica serovar Typhimurium SL1344
Test: bacterial growth OD600 after 18 h with compound and polymyxin B; higher = more bacterial growth (less inhibition)
Settings: 50 µM, Mueller-Hinton broth

SMILES | bacterial growth OD600 (polymyxin B 1 µg/mL) | bacterial growth OD600 (polymyxin B 0.75 µg/mL)
Fc1ccc(CC2CCN(Cc3nc(CC4CC4)no3)CC2)cc1 | 0.827 | –
COCCO[C@H]1[C@H](NC(=O)C(C)C)c2ccccc2C12CCN(C(=O)Cc1ccsc1)CC2 | – | 0.823
COC(=O)CCC(=O)N1CCCC(CCC(=O)Nc2cc(OC)cc(OC)c2)C1 (stereo unspecified) | 0.954 | –
CNc1ccc(C(=O)NCCC2COc3ccccc3O2)cn1 (stereo unspecified) | 0.968 | –
COCC(=O)Nc1cc(C(=O)NC(CCSC)C(=O)OC)cc2ncn(CCc3ccccc3)c12 (stereo unspecified) | – | 0.887
Fc1ccccc1-c1n[nH]c2c1CN(C1CCSC1)CC2 (stereo unspecified) | – | 0.986
COc1ccc(NC(=O)NC2CC(=O)N(C3CCCCCC3)C2)c(C)c1 (stereo unspecified) | 1 | –
CCOC(=O)C1(Cc2cccc(Cl)c2)CCCN(C(=O)C2=C(C)OCCO2)C1 (stereo unspecified) | 1.01 | –
CSc1nc(C(=O)N2CCCC(c3nc(-c4cccnc4)ncc3-c3ccccc3F)C2)cs1 (stereo unspecified) | – | 0.002
O=C(CCCc1ccccc1)N1CCOc2ccc(CN3CCN(c4ccc(F)cc4)CC3)cc2C1 | – | 0.591
COc1cc(CN2CCCC(CO)(Cc3cccc(Cl)c3)C2)cc(OC)c1 (stereo unspecified) | 0.549 | –
COC1CCCN(C(=O)c2csc3nc(-c4cccc(C(F)(F)F)c4)cn23)C1 (stereo unspecified) | – | 0.536
COCCN1CCCC2(CCN(Cc3cc4c(cc3Cl)OCO4)C2)C1 (stereo unspecified) | 0.86 | –
C=CCS(=O)(=O)N1CCCC(Cc2ccccc2C)(C(=O)OCC)C1 (stereo unspecified) | 0.883 | –
O=C(c1n[nH]c(=O)c2ccccc12)N1CCC2(CCCN(CCc3ccccc3)C2)C1 (stereo unspecified) | 0.008 | –
Cc1nc(-c2ccncc2)ncc1C(C)NC(=O)CCc1cccs1 (stereo unspecified) | 0.911 | –

SMILES | bacterial growth OD600 (polymyxin B 1 µg/mL) | bacterial growth OD600 (polymyxin B 0.75 µg/mL)
COCCO[C@H]1[C@H](NC(=O)C(C)C)c2ccccc2C12CCN(C(=O)c1ccc(F)cc1)CC2 | – | 0.814
COc1ccccc1C(=O)N[C@@H]1c2ccccc2C2(CCN(C(=O)c3cnc(C)cn3)CC2)[C@H]1OC | – | 0.899
CCOC(=O)CCNC(=O)c1ccc(OC)c(OC2CCN(C(C)=O)CC2)c1 | 1.06 | –
COCCN1C(=O)CC(CC(=O)N2CCC(Oc3ccccc3OC)CC2)(c2ccccc2F)C1=O (stereo unspecified) | – | 0.787
Cc1cc(-c2ccnc(-n3ncc(C(=O)N4CCN(c5ccccc5O)CC4)c3C)n2)c(C)s1 | – | 0.015
CC(NC(=O)c1coc(COc2ccc(F)cc2Cl)n1)c1cnn(C)c1 (stereo unspecified) | 0.942 | –
COC(=O)C(CCSC)NC(=O)CCC1(Cc2ccc(OC)cc2F)CCC(=O)N1 (stereo unspecified) | – | 0.843
O=C(Nc1ccc(-n2cccn2)cc1)C1CCCN1C(=O)CCc1ccco1 (stereo unspecified) | – | 0.828
CC(C)CN1CCC(C2CCN(C(=O)CCc3ccco3)C2)CC1 (stereo unspecified) | – | 0.833
COc1cccc(CC(C2CCN(C(=O)C(C)c3ccccc3)CC2)N(C)C(=O)c2ccn(C)n2)c1 (stereo unspecified) | – | 0.878
CC1CCN(c2ccc(C(=O)NCCC3CCCCN3C)cn2)CC1 (stereo unspecified) | – | 0.758
COc1ccc(C(CC(=O)NCc2ccncc2)c2ccccc2)cc1 (stereo unspecified) | 0.908 | –
CC1CN(Cc2cccnc2)Cc2cc(Cl)ccc2O1 (stereo unspecified) | – | 0.841
CN(c1ncccc1CNC(=O)c1ccc2c(c1)OCO2)C1CCCCC1 | 0.02 | –
Cc1ccc(C)c(-n2cc(CN3CCOCC3)c(-c3ccccc3)n2)c1 | 0.799 | –

Rewritten with tabs: 2 of the compounds above.
SMILES	bacterial growth OD600 (polymyxin B 1 µg/mL)	bacterial growth OD600 (polymyxin B 0.75 µg/mL)
COc1ccc(NC(=O)NC2CC(=O)N(C3CCCCCC3)C2)c(C)c1 (stereo unspecified)	1	–
CCOC(=O)CCNC(=O)c1ccc(OC)c(OC2CCN(C(C)=O)CC2)c1	1.06	–
